The record followed here is PubChem BioAssay AID330 (DTP/NCI, 2004).

The test system of this assay is P388 leukemia ip, CD2F1 mice, survival T/C. As to the kind of experiment: NCI In Vivo Anticancer Drug Screen. Data for tumor model P388 Leukemia (intraperitoneal) in CD2F1 (CDF1) mice. Conditions: T/C endpoint: median survival time, higher T/C = longer survival.
The mark [1] stands for this setting: dose: 50.0 mg/kg/injection, schedule: Q01DX009 (ip), vehicle: water.
Where [2] appears, read: dose: 100.0 mg/kg/injection, schedule: Q01DX009 (ip), vehicle: water.
The mark [3] stands for this setting: dose: 200.0 mg/kg/injection, schedule: Q01DX009 (ip), vehicle: water.
Where [4] appears, read: dose: 100.0 mg/kg/injection, schedule: Q01DX009 (ip), vehicle: saline with Tween-80.
Where [5] appears, read: dose: 2.0 mg/kg/injection, schedule: Q01DX009 (ip), vehicle: saline + alcohol.
[6] abbreviates: dose: 100.0 mg/kg/injection, schedule: Q01DX009 (ip), vehicle: Klucel (hydroxypropylcellulose) (HPC).
[7] abbreviates: dose: 200.0 mg/kg/injection, schedule: Q01DX009 (ip), vehicle: Klucel (hydroxypropylcellulose) (HPC).
Where [8] appears, read: dose: 50.0 mg/kg/injection, schedule: Q01DX005 (ip), vehicle: saline.
Where [9] appears, read: dose: 100.0 mg/kg/injection, schedule: Q01DX005 (ip), vehicle: saline.
Where [10] appears, read: dose: 200.0 mg/kg/injection, schedule: Q01DX005 (ip), vehicle: saline.
Setting [11] is: dose: 100.0 mg/kg/injection, schedule: Q01DX009 (ip), vehicle: saline.
The mark [12] stands for this setting: dose: 200.0 mg/kg/injection, schedule: Q01DX009 (ip), vehicle: saline with Tween-80.
Where [13] appears, read: dose: 400.0 mg/kg/injection, schedule: Q01DX009 (ip), vehicle: saline with Tween-80.
Setting [14] is: dose: 200.0 mg/kg/injection, schedule: Q01DX005 (ip), vehicle: saline with Tween-80.

The list does not hold the whole screen: it is rich in T/C values a quarter to a half above the control, in often repeated tests (any T/C) and in doses without a T/C. Further doses and runs are listed elsewhere. T/C is the treated group as % of the vehicle group. Some doses have a count of surviving animals in place of a T/C: the source holds a T/C of zero for them, seemingly a mark for toxic or unscored doses. Some survivor counts are full or nearly so, which does not show that the dose was tolerated: survival well below the control is almost never listed, so the zero probably covers shortened survival too. Counts of survivors are from the toxicity check (mostly the fifth day) where no day follows; animals may have died later. Schedule codes are those of the source, read here as Q, the interval in days (D) or hours (H), X, the number of doses. Additions like (4×) say how often a value occurs here. Some doses were run more than once; the results are listed from low to high. For survival time, this PubChem deposit counts one and a half times the control or more as active, and values a quarter to a half above the control carry no call in these data; other NCI protocols may use other cut-offs. Some T/C values carry the count of animals alive at the toxicity check (mostly the fifth day); without a count, all were alive then.

Take `C/C(=N/N=C(N)N)c1ccc(NC(=O)Nc2ccc(/C(C)=N/N=C(N)N)cc2)cc1`: the T/C is 129 and 132 % of control (dose: 3.13 mg/kg/injection, schedule: Q01DX009 (ip), vehicle: water, evaluated on day 30); 127 % of control (dose: 3.13 mg/kg/injection, schedule: Q01DX009 (ip), vehicle: water, evaluated on day 35); 145 % of control (dose: 6.25 mg/kg/injection, schedule: Q01DX009 (ip), vehicle: water, evaluated on day 30); 131 % of control (dose: 6.25 mg/kg/injection, schedule: Q01DX009 (ip), vehicle: water, evaluated on day 35); 133, 140, 145 % of control (dose: 12.5 mg/kg/injection, schedule: Q01DX009 (ip), vehicle: water, evaluated on day 30); 140 % of control (dose: 12.5 mg/kg/injection, schedule: Q01DX009 (ip), vehicle: water, evaluated on day 35). Moreover, the T/C is, setting by setting: (dose: 25.0 mg/kg/injection, schedule: Q01DX009 (ip), vehicle: water, evaluated on day 30) 151 and 155 % of control; (dose: 25.0 mg/kg/injection, schedule: Q01DX009 (ip), vehicle: water, evaluated on day 35) 158 % of control; (dose: 25.0 mg/kg/injection, schedule: Q04DX003 (ip), vehicle: saline with Tween-80) 140 % of control; under setting [1], 91 and 100 % of control; (dose: 50.0 mg/kg/injection, schedule: Q04DX003 (ip), vehicle: saline with Tween-80) 140 % of control; (dose: 66.0 mg/kg/injection, schedule: Q04DX003 (ip), vehicle: saline with Tween-80) 136 % of control. Further, the T/C (dose: 100.0 mg/kg/injection, schedule: Q04DX003 (ip), vehicle: saline with Tween-80) is 136 % of control. The survivor count was 5 of 6 (dose: 25.0 mg/kg/injection, schedule: Q01DX009 (ip), vehicle: water); 4 of 6 (2×) under setting [1]; 0 of 6 and 2 of 6 under setting [2]; 0 of 6 under setting [3].
In the case of `O=S(=O)(/C=C/c1cccnc1)/C=C/c1cccnc1`, the survivor count under setting [4] is on record as 3 of 6.
Take `COC(=O)[C@@]12OC[C@]34[C@H]([C@@H](O)[C@@H]1O)[C@@]1(C)CC(=O)C(O)=C(C)[C@@H]1C[C@H]3OC(=O)[C@H](OC(=O)CC(C)C)[C@@H]24`: the T/C is, setting by setting: (dose: 0.25 mg/kg/injection, schedule: Q01DX009 (ip), vehicle: saline + alcohol) 134 % of control; (dose: 0.5 mg/kg/injection, schedule: Q01DX009 (ip), vehicle: saline + alcohol) 129 [5 of 6 alive] and 137 % of control; (dose: 1.0 mg/kg/injection, schedule: Q01DX009 (ip), vehicle: saline + alcohol) 144 and 146 % of control; under setting [5], 134 % of control [5 of 6 alive]. In addition, the survivor count is reported as 3 of 6 under setting [5] and 0 of 6 (dose: 4.0 mg/kg/injection, schedule: Q01DX009 (ip), vehicle: saline + alcohol).
For the compound `Cc1csc(NC(=S)NC(=O)c2ccccc2)n1`, for the setting “dose: 400.0 mg/kg/injection, schedule: Q04DX003 (ip), vehicle: saline with Tween-80”, the survivor count is reported as 6 of 6.
Take `Cc1nc(C)c(Cl)c(OS(=O)(=O)CCCCl)c1Cl`: the survivor count was 5 of 6 (dose: 75.0 mg/kg/injection, schedule: Q01DX009 (ip), vehicle: Klucel (hydroxypropylcellulose) (HPC)); 2 of 6 under setting [6]; 1 of 6 under setting [7].
As for `CC(C)C(NC(=O)C(Cc1ccccc1)NC(=O)OCc1ccccc1)C(=O)OCc1ccccc1` (stereo not given), the survivor count (dose: 100.0 mg/kg/injection, schedule: Q01DX005 (ip), vehicle: saline with Tween-80) is reported as 5 of 5.
Consider `N=C1CCCS1`, for which the T/C under setting [8] was 125 % of control (2×) and the T/C under setting [9] is 147 % of control. For the same compound, under setting [10], the survivor count was 0 of 5 and 1 of 5.
As for `CP(=O)(NN)c1ccccc1` (stereo not given), the survivor count runs as follows: under setting [2], 6 of 6; under setting [3], 4 of 6.
Consider `C(=Nc1ccc2ccccc2c1)Nc1ccc2ccccc2c1.[Cu+2]`, for which the T/C (dose: 50.0 mg/kg/injection, schedule: Q01DX009 (ip), vehicle: saline) was 132 % of control. Further, the survivor count reads like this: under setting [4], 5 of 6; under setting [11], 2 of 6; under setting [12], 5 of 6.
With `N/N=C(\Cc1ccccc1)c1ccccc1`, the survivor count by setting is: under setting [4], 2 of 6; under setting [12], 0 of 6; under setting [13], 0 of 6.
Consider `CC(C)(C)c1ccnc(N=C2N=C(Nc3cc(C(C)(C)C)ccn3)c3ccccc32)c1`, for which, under setting [12], the survivor count is 6 of 6.
As to `CNC(=O)OCc1c(-c2ccccc2)c(-c2ccccc2)n(-c2ccc(OC)cc2)c1COC(=O)NC`, the T/C is 127 and 135 % of control (dose: 200.0 mg/kg/injection, schedule: Q01DX009 (ip), vehicle: distilled water + Tween-80); 136 % of control (dose: 400.0 mg/kg/injection, schedule: Q01DX009 (ip), vehicle: distilled water + Tween-80).
Regarding `CCOc1ccc2c(c1)[n+](=O)c1ccc(Cl)cc1n2[O-]`, under setting [14], the T/C was 126 % of control. Moreover, the survivor count reads like this: under setting [14], 6 of 6; (dose: 400.0 mg/kg/injection, schedule: Q01DX005 (ip), vehicle: saline with Tween-80) 2 of 6 and 4 of 6.
`NC(CSP(=O)(O)O)=NCC12CC3CC(CC(C3)C1)C2`: the survivor count (dose: 25.0 mg/kg/injection, schedule: Q01DX009 (ip), vehicle: saline with Tween-80) was 0 of 6.
`COc1ccc(C(N)=O)cc1N=NN(C)C`: under setting [6], the survivor count is 6 of 6.
Consider `O=C([Se][Se]C(=O)c1ccc(Cl)cc1)c1ccc(Cl)cc1`, for which the survivor count under setting [12] was 0 of 6.
`Cc1ccc(NC(=O)N2c3ccccc3SC2c2ccco2)c(C)c1` (stereo not given): the survivor count under setting [4] is on record as 6 of 6 and the survivor count under setting [12] was 6 of 6.
Consider `CCCCOC(=O)c1[nH]cnc1/N=N\N(C)C`, for which the T/C (dose: 50.0 mg/kg/injection, schedule: Q01DX009 (ip), vehicle: saline with Tween-80) was 145 % of control; the T/C (dose: 200.0 mg/kg/injection, schedule: Q04DX003 (ip), vehicle: saline with Tween-80, evaluated on day 20) is 141 % of control; the T/C (dose: 200.0 mg/kg/injection, schedule: Q04DX003 (ip), vehicle: saline with Tween-80, evaluated on day 30) is 131 % of control.
As for `Cc1ccnc(NC(=O)Nc2cc(Cl)ccc2Cl)c1`, the survivor count under setting [7] is given as 6 of 6.
Turning to `Nc1ncnc2c1nc(N)n2C1OC(CO)C(O)C1O` (stereo not given), the T/C by setting is: (dose: 12.0 mg/kg/injection, schedule: Q01DX005 (ip), vehicle: saline) 126 % of control; (dose: 12.5 mg/kg/injection, schedule: Q01DX005 (ip), vehicle: saline) 138 % of control. The survivor count under setting [8] was 3 of 6 and 5 of 6; the survivor count under setting [9] was 0 of 6; the survivor count under setting [10] is on record as 0 of 6.
`CCC1(c2ccccc2)SC(=O)NC1=O` (stereo not given): under setting [13], the survivor count was 3 of 6.
Turning to `NC(=O)c1nn[nH]n1`, the survivor count under setting [7] is 6 of 6.
For `O=C(Oc1ccc[nH]c1=O)c1ccc([N+](=O)[O-])cc1`, the T/C by setting is: under setting [11], 139 % of control; (dose: 400.0 mg/kg/injection, schedule: Q01DX009 (ip), vehicle: saline) 132 % of control.
